Here are results for 3 sequences from article PMC4763200.

The chains behind the UniProt entries cited, without tags or fusion partners.
UniProt P25490, whole entry K173R: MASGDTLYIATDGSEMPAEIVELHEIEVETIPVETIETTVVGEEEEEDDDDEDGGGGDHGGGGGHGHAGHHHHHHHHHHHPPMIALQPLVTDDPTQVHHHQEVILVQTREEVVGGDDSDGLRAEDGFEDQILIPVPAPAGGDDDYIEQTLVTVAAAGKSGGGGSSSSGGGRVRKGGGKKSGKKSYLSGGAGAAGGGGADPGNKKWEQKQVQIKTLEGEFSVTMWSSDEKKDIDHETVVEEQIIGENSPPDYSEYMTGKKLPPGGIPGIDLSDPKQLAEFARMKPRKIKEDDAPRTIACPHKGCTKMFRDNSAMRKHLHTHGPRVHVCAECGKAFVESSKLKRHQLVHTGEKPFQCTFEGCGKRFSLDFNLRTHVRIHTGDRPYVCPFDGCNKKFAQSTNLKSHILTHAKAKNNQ
UniProt P25490, whole entry K174R: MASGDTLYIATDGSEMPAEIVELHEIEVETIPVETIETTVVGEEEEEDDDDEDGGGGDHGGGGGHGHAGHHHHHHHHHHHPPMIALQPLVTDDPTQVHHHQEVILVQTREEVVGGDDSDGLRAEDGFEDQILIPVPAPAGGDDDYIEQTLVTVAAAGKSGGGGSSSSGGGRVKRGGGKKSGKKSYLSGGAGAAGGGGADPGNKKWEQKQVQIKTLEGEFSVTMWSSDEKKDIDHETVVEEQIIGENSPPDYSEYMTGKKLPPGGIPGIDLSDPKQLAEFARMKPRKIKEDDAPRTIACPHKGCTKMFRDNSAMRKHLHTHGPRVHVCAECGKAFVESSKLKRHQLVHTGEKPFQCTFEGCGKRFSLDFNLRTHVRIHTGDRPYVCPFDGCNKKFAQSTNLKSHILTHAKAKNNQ
UniProt P25490, whole entry K409R: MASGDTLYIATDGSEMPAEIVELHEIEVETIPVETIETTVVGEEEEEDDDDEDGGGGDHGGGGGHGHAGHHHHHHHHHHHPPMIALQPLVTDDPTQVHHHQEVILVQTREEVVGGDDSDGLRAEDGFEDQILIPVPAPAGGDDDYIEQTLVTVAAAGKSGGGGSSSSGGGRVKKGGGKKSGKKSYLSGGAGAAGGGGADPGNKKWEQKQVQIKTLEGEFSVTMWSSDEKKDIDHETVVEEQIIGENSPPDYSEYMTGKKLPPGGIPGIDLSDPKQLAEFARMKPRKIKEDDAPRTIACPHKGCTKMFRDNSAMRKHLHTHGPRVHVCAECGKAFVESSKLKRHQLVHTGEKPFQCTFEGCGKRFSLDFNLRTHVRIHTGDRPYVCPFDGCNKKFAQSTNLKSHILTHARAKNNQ
UniProt P25490, whole entry K411R: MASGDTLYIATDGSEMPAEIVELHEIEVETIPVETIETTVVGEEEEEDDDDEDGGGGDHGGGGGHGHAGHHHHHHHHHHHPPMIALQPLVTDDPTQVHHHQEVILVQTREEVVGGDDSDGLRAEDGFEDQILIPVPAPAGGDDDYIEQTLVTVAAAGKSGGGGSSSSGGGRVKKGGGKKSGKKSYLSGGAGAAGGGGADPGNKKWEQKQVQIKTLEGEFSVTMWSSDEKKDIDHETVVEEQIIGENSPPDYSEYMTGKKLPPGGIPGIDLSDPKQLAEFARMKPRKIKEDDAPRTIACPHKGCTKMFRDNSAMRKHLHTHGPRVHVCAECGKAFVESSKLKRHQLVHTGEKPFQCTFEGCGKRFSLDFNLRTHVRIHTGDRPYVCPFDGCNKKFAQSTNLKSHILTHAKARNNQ
UniProt P25490, whole entry: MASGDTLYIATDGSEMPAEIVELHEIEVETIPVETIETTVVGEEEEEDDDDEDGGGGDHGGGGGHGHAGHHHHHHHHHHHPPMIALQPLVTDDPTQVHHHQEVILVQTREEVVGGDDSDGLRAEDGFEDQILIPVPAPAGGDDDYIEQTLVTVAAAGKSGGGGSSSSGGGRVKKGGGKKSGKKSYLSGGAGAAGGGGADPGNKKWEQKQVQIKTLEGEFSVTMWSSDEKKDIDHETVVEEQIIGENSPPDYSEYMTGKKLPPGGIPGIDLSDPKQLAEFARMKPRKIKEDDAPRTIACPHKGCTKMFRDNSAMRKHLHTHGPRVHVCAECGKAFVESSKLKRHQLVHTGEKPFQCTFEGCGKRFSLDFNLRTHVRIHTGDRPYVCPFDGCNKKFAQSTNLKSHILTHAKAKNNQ

The target in series [1] is YY1 K173R (Homo sapiens) (UniProt P25490). Nature of the series: EMSA. Conditions: 20 ul: 1x binding buffer (10 mM Tris pH 7.5, 50 mM KCl, 1 mM DTT), 2.5% glycerol, 5 mM MgCl2, 50 ng/ul poly(dI.dC), 0.05% NP-40; protein in a lysate after overexpression; residues 1-414; protein details: Flag; label: 5' biotin on both strands. For orientation: In EMSA bound probe runs differently from free probe, usually more slowly.

In series [2] the target is YY1 K174R (Homo sapiens) (UniProt P25490). Nature of the series: EMSA. The settings on record: 20 ul: 1x binding buffer (10 mM Tris pH 7.5, 50 mM KCl, 1 mM DTT), 2.5% glycerol, 5 mM MgCl2, 50 ng/ul poly(dI.dC), 0.05% NP-40; protein in a lysate after overexpression; residues 1-414; protein details: Flag; label: 5' biotin on both strands.
Series [3] addresses YY1 K409R (Homo sapiens) (UniProt P25490). The experiment in a line: EMSA. The settings on record: 20 ul: 1x binding buffer (10 mM Tris pH 7.5, 50 mM KCl, 1 mM DTT), 2.5% glycerol, 5 mM MgCl2, 50 ng/ul poly(dI.dC), 0.05% NP-40; protein in a lysate after overexpression; residues 1-414; protein details: Flag; label: 5' biotin on both strands.
Series [4] has as its target YY1 K411R (Homo sapiens) (UniProt P25490). Nature of the series: EMSA. Conditions: 20 ul: 1x binding buffer (10 mM Tris pH 7.5, 50 mM KCl, 1 mM DTT), 2.5% glycerol, 5 mM MgCl2, 50 ng/ul poly(dI.dC), 0.05% NP-40; protein in a lysate after overexpression; residues 1-414; protein details: Flag; label: 5' biotin on both strands.
Series [5] addresses YY1 wt (Homo sapiens) (UniProt P25490). The experiment in a line: EMSA. The settings on record: 20 ul: 1x binding buffer (10 mM Tris pH 7.5, 50 mM KCl, 1 mM DTT), 2.5% glycerol, 5 mM MgCl2, 50 ng/ul poly(dI.dC), 0.05% NP-40; protein in a lysate after overexpression; label: 5' biotin on both strands.
For series [6] the target is unchanged. Nature of the series: competition with a labelled probe. Conditions: excess unlabeled wt oligo vs biotinylated N1; 20 ul: 1x binding buffer (10 mM Tris pH 7.5, 50 mM KCl, 1 mM DTT), 2.5% glycerol, 5 mM MgCl2, 50 ng/ul poly(dI.dC), 0.05% NP-40; protein in a lysate after overexpression; scale: remaining probe shift, fraction of lane 3.

Where cells or extracts were used, other partners may take part. For some of these results: A negative result means that nothing was seen under these conditions. For at least one entry, the source does not settle the construct or the ends of the probe. For some of these results: The direction of at least one scale is not stated here.

In the case of “CGCTCCCCGGCCATCTTGGCGGCTGGT (double strand) [YY1 consensus site (wt), biotinylated]”, the binding signal (fraction of YY1 wt (lane 3)) was 0.62 in series [1]; 0.94 in series [2]; 0.85 in series [3]; 0.2 in series [4]; 1 in series [5].

Regarding “CGCTCCCCGGCCATCTTGGCGGCTGGT (double strand) [YY1 consensus site (wt), unlabeled competitor]”, the binding signal in series [6] turned out to be 0.15.

“CGCTCCGCGATTATCTTGGCGGCTGGT (double strand) [YY1 mutant site (m), biotinylated]”: the binding result in series [5] is on record as “no binding”.
